No constants are given. Whether binding was seen depends on the method and setting. Some results given as binding are weak or reduced against the parent protein; the word gives no strength.

Sequences of proteins named here, by UniProt entry; tags and fusion partners are left off.
UniProt P61073: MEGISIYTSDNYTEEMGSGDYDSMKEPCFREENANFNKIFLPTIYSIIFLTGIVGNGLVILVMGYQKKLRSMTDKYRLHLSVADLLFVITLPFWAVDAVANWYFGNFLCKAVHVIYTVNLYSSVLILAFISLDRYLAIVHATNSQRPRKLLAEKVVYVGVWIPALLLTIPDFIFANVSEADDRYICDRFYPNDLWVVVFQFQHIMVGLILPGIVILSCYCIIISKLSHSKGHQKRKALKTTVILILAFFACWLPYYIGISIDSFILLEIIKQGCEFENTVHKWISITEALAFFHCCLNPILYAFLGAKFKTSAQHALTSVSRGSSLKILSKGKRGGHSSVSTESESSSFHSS
UniProt P70658: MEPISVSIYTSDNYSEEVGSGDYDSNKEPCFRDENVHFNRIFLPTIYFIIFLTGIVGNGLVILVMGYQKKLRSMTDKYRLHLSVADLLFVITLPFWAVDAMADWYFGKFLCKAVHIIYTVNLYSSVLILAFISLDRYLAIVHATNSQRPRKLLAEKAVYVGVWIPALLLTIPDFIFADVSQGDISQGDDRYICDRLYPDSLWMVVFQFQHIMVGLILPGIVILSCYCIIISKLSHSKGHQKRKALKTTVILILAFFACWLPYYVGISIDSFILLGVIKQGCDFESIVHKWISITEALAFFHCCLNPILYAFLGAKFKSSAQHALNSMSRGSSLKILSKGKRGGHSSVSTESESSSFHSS

In patent publication US20160244527A1 one finds binding data, which are given here for two molecules.

Test [1] addresses CXC chemokine receptor 4 (CXCR4), human (human) (UniProt P61073). The test is described as follows: flow cytometry (EasyCyte), purified scFv. (Flow cytometry measures light scatter and fluorescence of single cells or particles in a stream.)
Test [2] has as its target mouse CXCR4 (mouse) (UniProt P70658). The test is described as follows: flow cytometry (EasyCyte) on transiently transfected HEK293T/17 cells.
Test [3] has the same target. In words: EasyCyte flow cytometry on HEK293T/17 cells transiently transfected with mouse CXCR4, Fugene without DNA as negative control; scFv level according to the example, amount not given.
Test [4] shares this target. In words: flow cytometry (EasyCyte), scFv on HEK-293 cells transiently transfected with mouse CXCR4.

B1: 9N10 scFv (scFv)
scFv: QVQLQESGGGLVHPGGSLRLSCAASGFTFSSYWMHWVRQAPGKGLVWVSRINSDGSSTSYADSVKGRFTISRDNAKNTLYLQMNSLRAEDTAVYYCARKILGVGARSRRYFDYWGQGTMVTVSSKLSGSASAPKLEEGEFSEARVDIVLTQTPDSLAVSLGETTTINCKSSQSVLHSSNNKNYLAWYQQKPGQPPKLLIYWASTRESGVPDRFSGSGSGTDFTLTISNLQPEDVAFYYCLQYSTFPRTFGQGTKVEIKAAAGSEQKLISEEDLNSHHHHHH
Regarding B1, the binding result in test [1] is recorded as “binds”.

B2: C-9P21 scFv (scFv)
scFv: QVQLQESGGGLVHPGGSLRLSCAASGFTFSSYWMHWVRQAPGKGLVWVSRINSDGSSTSYADSVKGRFTISRDNAKNTLYLQMNSLRAEDTAVYYCARKILGVGARSRRYFDYWGQGTMVTVSSKLSGSASAPKLEEGEFSEARVETTLTQSPGTLSLSPGERATLSCRASQSVVSNYLAWYQQKPGQAPRLLISGASNRATGISDRFSGSGSGADFTLTISRVEPEDSAVYYCQQFDKSTWTFGQGTKVEIKAAAGSEQKLISEEDLNSHHHHHH
B2: the binding entry in the test with mouse CXCR4 (mouse) [2], with mouse CXCR4 (mouse) [3] and with mouse CXCR4 (mouse) [4] was “binds” each time.
